Data from the supplement of paper PMC8007513.
The other results are listed elsewhere or left out. Many values rest on one well or one pass, so single values are uncertain.

What follows are molecules tested on Saccharomyces cerevisiae BY4743 (assay: growth (OD600) with compound + IPBC relative to untreated control; higher = less growth inhibition). Conditions: compound concentration: 133 uM; IPBC concentration: 0.5 ug/ml; 20 h.
Protocol: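 NMCCC compounds (133 uM) combined with IPBC (0.5 ug/ml) against Saccharomyces cerevisiae BY4743 in YPD, 96-well plates. Growth was read as OD600 at 20 h and expressed as % of the untreated control. Single pass.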

| Compound | growth [%] |
| --- | --- |
| COc1ccccc1C(=O)NCCc1nc2cc(NC(=O)CC(C)C)ccc2n1C + CCCCNC(=O)OCC#CI [3-iodo-2-propynyl butylcarbamate (IPBC)] | 103 |
| CCOC(=O)c1[nH]c(C)c(C(=O)N2CCC(CC(=O)NC(C)CC)CC2)c1C (centres undefined) + CCCCNC(=O)OCC#CI [3-iodo-2-propynyl butylcarbamate (IPBC)] | 80.9 |
| Cc1ccc(C(=O)c2sc(Nc3ccccc3)nc2N)c(C)c1 + CCCCNC(=O)OCC#CI [3-iodo-2-propynyl butylcarbamate (IPBC)] | 96.5 |
| CC(C)(C)C(O)CN\1C2=CC=CC=C2N3CC/N=C13 (centres undefined) + CCCCNC(=O)OCC#CI [3-iodo-2-propynyl butylcarbamate (IPBC)] | 98.4 |
| CC(NC(=O)CSc1nc(O)c(C#N)c(-c2ccc(Cl)cc2)n1)c1ccccc1 (centres undefined) + CCCCNC(=O)OCC#CI [3-iodo-2-propynyl butylcarbamate (IPBC)] | 106 |
| CC(C)C(Nc1ccc(C(F)(F)F)cc1Cl)C(=O)OCC(=O)N1CCNC1=O (centres undefined) + CCCCNC(=O)OCC#CI [3-iodo-2-propynyl butylcarbamate (IPBC)] | 47.6 |
| CN(C)c1cccc(C(=O)OCc2cn3cc(Cl)ccc3n2)c1 + CCCCNC(=O)OCC#CI [3-iodo-2-propynyl butylcarbamate (IPBC)] | 86.6 |
| CCOC(=O)c1c(C)[nH]c(C)c1S(=O)(=O)N1CCN(Cc2ccccc2)CC1 + CCCCNC(=O)OCC#CI [3-iodo-2-propynyl butylcarbamate (IPBC)] | 91 |
| Cc1cc(C)nc(SCc2nc(-c3ccccc3)no2)n1 + CCCCNC(=O)OCC#CI [3-iodo-2-propynyl butylcarbamate (IPBC)] | 95.5 |
| COc1cccc(OC)c1C(=O)OCC(=O)NC(=O)NCc1ccccc1 + CCCCNC(=O)OCC#CI [3-iodo-2-propynyl butylcarbamate (IPBC)] | 99.9 |
| COC1(C(=O)C(=O)Nc2ccccc2Cl)NC(C)(C)Cc2ccccc21 (centres undefined) + CCCCNC(=O)OCC#CI [3-iodo-2-propynyl butylcarbamate (IPBC)] | 71.6 |
| COc1ccc(OC)c(C(C)NC(=O)C2CCCCN2S(=O)(=O)c2ccc(C(C)=O)cc2)c1 (centres undefined) + CCCCNC(=O)OCC#CI [3-iodo-2-propynyl butylcarbamate (IPBC)] | 99 |
| CC(c1cccnc1)N(C(=O)Nc1ccc(Cl)cc1)C1CCCCC1 (centres undefined) + CCCCNC(=O)OCC#CI [3-iodo-2-propynyl butylcarbamate (IPBC)] | 91.1 |
| COC(=O)C(CC(C)C)NC(=O)c1ccc(S(=O)(=O)N2CCc3ccccc3C2)cc1 (centres undefined) + CCCCNC(=O)OCC#CI [3-iodo-2-propynyl butylcarbamate (IPBC)] | 99.5 |
| Cc1ccc(Nc2nc(COC(=O)c3nccnc3N)cs2)cc1 + CCCCNC(=O)OCC#CI [3-iodo-2-propynyl butylcarbamate (IPBC)] | 102 |
| O=C(CNC(=O)c1sc2ccccc2c1Cl)OC1CCOC1=O (centres undefined) + CCCCNC(=O)OCC#CI [3-iodo-2-propynyl butylcarbamate (IPBC)] | 96.8 |
| CSc1ncc(Cl)c(C(=O)NC2CC3CCC2(C)C3(C)C)n1 (centres undefined) + CCCCNC(=O)OCC#CI [3-iodo-2-propynyl butylcarbamate (IPBC)] | 109 |
| Cc1ccc(S(C)(=O)=O)cc1C(=O)Nc1nc2cc(Cl)ccc2n1C + CCCCNC(=O)OCC#CI [3-iodo-2-propynyl butylcarbamate (IPBC)] | 88.5 |
| CCSc1nnc2c(n1)OC(CC)N(C(C)=O)c1ccccc1-2 (centres undefined) + CCCCNC(=O)OCC#CI [3-iodo-2-propynyl butylcarbamate (IPBC)] | 89.7 |
| CCOC(=O)c1c(C)[nH]c(C)c1S(=O)(=O)NCC(=O)N1CCN(CC)CC1 + CCCCNC(=O)OCC#CI [3-iodo-2-propynyl butylcarbamate (IPBC)] | 104 |

| Compound | growth [%] |
| --- | --- |
| O=C(COc1ncnc2ccc(Br)cc12)NCC1CCCO1 (centres undefined) + CCCCNC(=O)OCC#CI [3-iodo-2-propynyl butylcarbamate (IPBC)] | 83.9 |
| CCOC(=O)c1sc(NC(=O)c2nc3nccc(C)n3n2)nc1C + CCCCNC(=O)OCC#CI [3-iodo-2-propynyl butylcarbamate (IPBC)] | 94.1 |
| CCCn1c(SCC(=O)Nc2ccc(C(N)=O)cc2)nc2ccc(C(F)(F)F)cc21 + CCCCNC(=O)OCC#CI [3-iodo-2-propynyl butylcarbamate (IPBC)] | 90.8 |
| CC1=CC=C(C)C(=C1)[S](=O)(=O)N(CC2=CC=CC=C2)C\3C[S](=O)(=O)\C=C3 (centres undefined) + CCCCNC(=O)OCC#CI [3-iodo-2-propynyl butylcarbamate (IPBC)] | 89.1 |
| Cc1ccc(-c2ccc(CCC(=O)Nc3ccc(C(N)=O)cc3)o2)cc1C + CCCCNC(=O)OCC#CI [3-iodo-2-propynyl butylcarbamate (IPBC)] | 86.4 |
| CC(C)c1csc(NC(=O)c2cnn(-c3ccccc3)c2)n1 + CCCCNC(=O)OCC#CI [3-iodo-2-propynyl butylcarbamate (IPBC)] | 106 |
| COc1ccc(CNC(=O)COC(=O)Cc2c(C)nn(C)c2C)cc1 + CCCCNC(=O)OCC#CI [3-iodo-2-propynyl butylcarbamate (IPBC)] | 90.7 |
| CCC1CN(CN2C(=O)C(=O)c3c(Br)cccc32)CCO1 (centres undefined) + CCCCNC(=O)OCC#CI [3-iodo-2-propynyl butylcarbamate (IPBC)] | 109 |
| CCOC(=O)c1[nH]c(C)c(C(=O)Nc2c(C)cc(C)cc2C)c1C + CCCCNC(=O)OCC#CI [3-iodo-2-propynyl butylcarbamate (IPBC)] | 103 |
| Cc1cc(C)c(NC(=O)CCCN(c2ccc3c(c2)OCO3)S(C)(=O)=O)c(C)c1 + CCCCNC(=O)OCC#CI [3-iodo-2-propynyl butylcarbamate (IPBC)] | 106 |
| CCO/C(O)=C1\C(C)=NC2=C(C(=O)CC(C)(C)C2)C1c1cc(Cl)ccc1F (centres undefined) + CCCCNC(=O)OCC#CI [3-iodo-2-propynyl butylcarbamate (IPBC)] | 102 |
| CC(CCc1ccccc1)NC(=O)N(C)Cc1nc(O)c2sccc2n1 (centres undefined) + CCCCNC(=O)OCC#CI [3-iodo-2-propynyl butylcarbamate (IPBC)] | 99.9 |
| Cc1cc(C)nc(NS(=O)(=O)c2ccc(NC(=O)c3ccccc3OC(C)C)cc2)n1 + CCCCNC(=O)OCC#CI [3-iodo-2-propynyl butylcarbamate (IPBC)] | 99.8 |
| Cc1ccc(-c2n[nH]c(SCC(=O)NC3(C#N)CCCC3)n2)cc1 + CCCCNC(=O)OCC#CI [3-iodo-2-propynyl butylcarbamate (IPBC)] | 98.9 |
| COc1cc(C(=O)OCC(=O)NC2(C#N)CCCC2)cc2c1OCCO2 + CCCCNC(=O)OCC#CI [3-iodo-2-propynyl butylcarbamate (IPBC)] | 114 |
| Cn1ncc2c(SCCC(=O)Nc3ccccc3F)ncnc21 + CCCCNC(=O)OCC#CI [3-iodo-2-propynyl butylcarbamate (IPBC)] | 92.6 |
| CCN(C(=O)Nc1cccc(C(C)=O)c1)c1nc(-c2ccc(C)cc2)cs1 + CCCCNC(=O)OCC#CI [3-iodo-2-propynyl butylcarbamate (IPBC)] | 82.4 |
| CC(C)CCNC(=O)c1cnn2c3c(cnc12)CCCC3 + CCCCNC(=O)OCC#CI [3-iodo-2-propynyl butylcarbamate (IPBC)] | 104 |
| CC(C)C1O\C(=N/C1=O)NC(=O)NC(C)(C)C2=CC=CC(=C2)C(C)=C (centres undefined) + CCCCNC(=O)OCC#CI [3-iodo-2-propynyl butylcarbamate (IPBC)] | 98.9 |

Given bar-delimited: part of the list above
Compound | growth [%]
CC1=CC=C(C)C(=C1)[S](=O)(=O)N(CC2=CC=CC=C2)C\3C[S](=O)(=O)\C=C3 (centres undefined) + CCCCNC(=O)OCC#CI [3-iodo-2-propynyl butylcarbamate (IPBC)] | 89.1
Cc1ccc(-c2ccc(CCC(=O)Nc3ccc(C(N)=O)cc3)o2)cc1C + CCCCNC(=O)OCC#CI [3-iodo-2-propynyl butylcarbamate (IPBC)] | 86.4
